# Reference: the supplement of paper PMC12067093, “Discovery and optimisation of a covalent ligand for TRIM25 and its application to targeted protein ubiquitination” (Chemical Science, 2025)
# By UniProt entry, the sequences of proteins in these tests, tags left out. Where a name states a change or a piece, a line headed by the entry shows the natural chain unless it says otherwise.
# UniProt Q8N108: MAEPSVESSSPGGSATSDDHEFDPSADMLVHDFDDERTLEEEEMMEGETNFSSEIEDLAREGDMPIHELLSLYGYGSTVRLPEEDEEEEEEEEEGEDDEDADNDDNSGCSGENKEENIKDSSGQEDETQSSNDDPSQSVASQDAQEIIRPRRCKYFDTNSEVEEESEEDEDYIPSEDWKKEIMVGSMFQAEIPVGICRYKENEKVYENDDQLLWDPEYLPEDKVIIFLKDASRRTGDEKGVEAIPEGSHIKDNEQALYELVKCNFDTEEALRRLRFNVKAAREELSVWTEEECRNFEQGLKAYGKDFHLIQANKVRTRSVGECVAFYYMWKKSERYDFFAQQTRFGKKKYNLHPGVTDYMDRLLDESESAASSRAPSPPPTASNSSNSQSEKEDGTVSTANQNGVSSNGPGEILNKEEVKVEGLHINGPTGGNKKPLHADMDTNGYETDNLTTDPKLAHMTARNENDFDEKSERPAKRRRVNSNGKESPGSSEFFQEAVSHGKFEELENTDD
# UniProt Q9NXC5: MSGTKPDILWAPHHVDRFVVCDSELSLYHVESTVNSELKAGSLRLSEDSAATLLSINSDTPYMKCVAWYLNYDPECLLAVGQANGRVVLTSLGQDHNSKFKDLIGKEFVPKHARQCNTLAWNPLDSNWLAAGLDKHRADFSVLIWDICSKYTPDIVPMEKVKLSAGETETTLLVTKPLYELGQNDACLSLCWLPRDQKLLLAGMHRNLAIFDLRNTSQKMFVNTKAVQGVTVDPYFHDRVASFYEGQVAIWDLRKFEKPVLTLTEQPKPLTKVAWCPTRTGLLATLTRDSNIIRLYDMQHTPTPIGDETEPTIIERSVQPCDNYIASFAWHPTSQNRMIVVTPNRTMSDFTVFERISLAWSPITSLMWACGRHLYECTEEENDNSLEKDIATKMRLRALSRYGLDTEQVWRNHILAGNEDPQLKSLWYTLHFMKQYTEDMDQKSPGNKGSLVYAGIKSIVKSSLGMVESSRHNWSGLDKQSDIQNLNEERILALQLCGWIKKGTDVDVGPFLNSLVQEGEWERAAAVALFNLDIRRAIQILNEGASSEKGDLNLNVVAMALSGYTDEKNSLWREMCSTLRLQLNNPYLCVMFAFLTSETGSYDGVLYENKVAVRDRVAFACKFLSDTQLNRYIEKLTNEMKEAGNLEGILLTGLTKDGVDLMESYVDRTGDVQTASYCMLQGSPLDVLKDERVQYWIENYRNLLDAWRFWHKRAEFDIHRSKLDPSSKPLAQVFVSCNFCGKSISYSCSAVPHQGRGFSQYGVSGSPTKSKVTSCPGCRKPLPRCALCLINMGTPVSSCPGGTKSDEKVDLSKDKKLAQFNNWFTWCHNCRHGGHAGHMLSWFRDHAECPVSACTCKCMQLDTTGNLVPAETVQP
# UniProt Q96BX8: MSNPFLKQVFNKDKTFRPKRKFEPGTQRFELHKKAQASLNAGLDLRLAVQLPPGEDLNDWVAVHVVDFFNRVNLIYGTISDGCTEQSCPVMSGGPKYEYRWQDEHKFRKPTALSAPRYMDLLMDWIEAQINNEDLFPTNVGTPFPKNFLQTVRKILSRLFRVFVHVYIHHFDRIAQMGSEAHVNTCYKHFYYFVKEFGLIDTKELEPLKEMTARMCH
# UniProt Q8NDA8: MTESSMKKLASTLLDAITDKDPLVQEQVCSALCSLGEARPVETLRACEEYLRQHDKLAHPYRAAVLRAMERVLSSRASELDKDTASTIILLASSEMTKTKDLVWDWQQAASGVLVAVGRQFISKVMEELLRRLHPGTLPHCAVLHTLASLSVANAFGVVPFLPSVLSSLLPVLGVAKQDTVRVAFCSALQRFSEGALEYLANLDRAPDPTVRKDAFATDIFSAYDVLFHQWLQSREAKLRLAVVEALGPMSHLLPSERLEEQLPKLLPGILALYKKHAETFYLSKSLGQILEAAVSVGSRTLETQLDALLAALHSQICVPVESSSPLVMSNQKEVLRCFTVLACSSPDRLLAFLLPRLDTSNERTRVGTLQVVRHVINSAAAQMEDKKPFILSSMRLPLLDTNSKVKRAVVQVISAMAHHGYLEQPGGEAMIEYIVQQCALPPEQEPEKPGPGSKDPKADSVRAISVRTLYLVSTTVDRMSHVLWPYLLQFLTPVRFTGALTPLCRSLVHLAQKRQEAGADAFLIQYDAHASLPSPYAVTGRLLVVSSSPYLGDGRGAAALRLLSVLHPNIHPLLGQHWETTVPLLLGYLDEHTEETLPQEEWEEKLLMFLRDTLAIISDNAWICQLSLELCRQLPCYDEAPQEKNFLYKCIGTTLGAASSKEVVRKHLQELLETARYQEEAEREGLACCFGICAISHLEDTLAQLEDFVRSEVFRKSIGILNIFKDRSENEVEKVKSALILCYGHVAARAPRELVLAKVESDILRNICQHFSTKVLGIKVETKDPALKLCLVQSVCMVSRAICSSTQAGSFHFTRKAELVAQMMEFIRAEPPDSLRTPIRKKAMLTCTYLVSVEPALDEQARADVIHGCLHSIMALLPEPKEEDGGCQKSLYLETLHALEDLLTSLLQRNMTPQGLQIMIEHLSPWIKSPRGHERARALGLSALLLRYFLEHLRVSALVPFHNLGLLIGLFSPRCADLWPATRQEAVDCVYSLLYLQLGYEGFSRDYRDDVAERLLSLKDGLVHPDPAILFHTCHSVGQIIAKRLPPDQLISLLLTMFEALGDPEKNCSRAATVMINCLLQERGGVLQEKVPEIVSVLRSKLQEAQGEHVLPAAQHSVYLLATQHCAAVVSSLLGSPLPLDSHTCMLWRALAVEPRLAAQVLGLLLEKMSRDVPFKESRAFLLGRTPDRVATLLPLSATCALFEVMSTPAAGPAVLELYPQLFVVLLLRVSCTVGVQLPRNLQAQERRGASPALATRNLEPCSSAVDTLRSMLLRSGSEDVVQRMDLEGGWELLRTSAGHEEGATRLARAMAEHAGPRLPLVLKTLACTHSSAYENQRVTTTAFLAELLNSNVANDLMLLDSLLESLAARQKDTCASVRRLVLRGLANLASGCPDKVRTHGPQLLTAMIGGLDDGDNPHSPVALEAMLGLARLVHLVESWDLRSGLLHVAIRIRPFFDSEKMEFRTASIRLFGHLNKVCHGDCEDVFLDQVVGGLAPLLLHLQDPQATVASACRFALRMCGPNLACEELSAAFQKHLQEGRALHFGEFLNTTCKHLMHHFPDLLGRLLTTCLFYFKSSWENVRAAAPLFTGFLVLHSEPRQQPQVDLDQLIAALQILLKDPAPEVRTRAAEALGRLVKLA
# UniProt P16455, whole entry, looked up: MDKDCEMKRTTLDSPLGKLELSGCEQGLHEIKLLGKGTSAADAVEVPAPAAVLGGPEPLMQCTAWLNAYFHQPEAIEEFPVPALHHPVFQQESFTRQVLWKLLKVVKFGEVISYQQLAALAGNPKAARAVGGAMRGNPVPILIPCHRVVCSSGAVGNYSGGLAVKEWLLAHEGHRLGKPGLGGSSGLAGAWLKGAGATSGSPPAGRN
# UniProt Q8WV92, whole entry, looked up: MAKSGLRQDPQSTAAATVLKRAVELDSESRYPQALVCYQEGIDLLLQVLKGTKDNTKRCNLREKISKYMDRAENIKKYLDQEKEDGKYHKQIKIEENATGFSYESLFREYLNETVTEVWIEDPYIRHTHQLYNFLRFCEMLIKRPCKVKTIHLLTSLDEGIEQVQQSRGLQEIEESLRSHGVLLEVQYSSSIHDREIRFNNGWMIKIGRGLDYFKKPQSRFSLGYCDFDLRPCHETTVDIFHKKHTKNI
# UniProt Q14149: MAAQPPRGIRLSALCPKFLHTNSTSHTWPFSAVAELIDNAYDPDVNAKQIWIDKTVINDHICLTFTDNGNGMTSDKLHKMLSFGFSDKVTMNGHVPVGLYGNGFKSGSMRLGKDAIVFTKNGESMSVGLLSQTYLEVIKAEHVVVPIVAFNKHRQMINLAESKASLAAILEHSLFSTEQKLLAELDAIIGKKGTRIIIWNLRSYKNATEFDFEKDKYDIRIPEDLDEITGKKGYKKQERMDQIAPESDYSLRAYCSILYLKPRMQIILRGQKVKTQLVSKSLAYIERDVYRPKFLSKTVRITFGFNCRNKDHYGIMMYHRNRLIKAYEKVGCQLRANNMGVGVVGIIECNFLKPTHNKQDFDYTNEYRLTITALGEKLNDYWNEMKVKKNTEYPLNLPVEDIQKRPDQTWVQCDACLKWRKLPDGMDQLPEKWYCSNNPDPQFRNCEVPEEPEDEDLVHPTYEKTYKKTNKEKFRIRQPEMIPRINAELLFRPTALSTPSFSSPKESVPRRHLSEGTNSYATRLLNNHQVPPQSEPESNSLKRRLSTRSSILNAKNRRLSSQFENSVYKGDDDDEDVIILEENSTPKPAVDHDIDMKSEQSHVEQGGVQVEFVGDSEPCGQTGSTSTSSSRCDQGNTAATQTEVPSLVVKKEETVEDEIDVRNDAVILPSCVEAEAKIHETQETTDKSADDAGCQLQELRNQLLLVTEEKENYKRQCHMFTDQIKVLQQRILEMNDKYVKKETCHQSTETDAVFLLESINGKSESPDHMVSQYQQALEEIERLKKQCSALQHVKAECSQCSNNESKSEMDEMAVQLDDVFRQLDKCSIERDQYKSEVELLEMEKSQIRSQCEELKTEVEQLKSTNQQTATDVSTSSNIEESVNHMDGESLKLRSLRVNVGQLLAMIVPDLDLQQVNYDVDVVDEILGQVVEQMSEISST
# UniProt O96033: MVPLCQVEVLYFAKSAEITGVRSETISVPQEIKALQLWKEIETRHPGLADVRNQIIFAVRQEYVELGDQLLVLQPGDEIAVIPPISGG
# UniProt Q9H3L0: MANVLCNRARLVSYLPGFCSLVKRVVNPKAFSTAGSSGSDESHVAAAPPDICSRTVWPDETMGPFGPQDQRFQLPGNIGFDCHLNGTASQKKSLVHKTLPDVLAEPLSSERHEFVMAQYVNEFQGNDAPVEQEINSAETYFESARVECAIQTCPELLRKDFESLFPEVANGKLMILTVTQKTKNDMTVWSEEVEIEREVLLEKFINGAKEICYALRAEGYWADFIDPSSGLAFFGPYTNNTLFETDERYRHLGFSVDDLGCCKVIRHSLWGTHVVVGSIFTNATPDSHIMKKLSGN
# UniProt Q9UL63, whole entry, looked up: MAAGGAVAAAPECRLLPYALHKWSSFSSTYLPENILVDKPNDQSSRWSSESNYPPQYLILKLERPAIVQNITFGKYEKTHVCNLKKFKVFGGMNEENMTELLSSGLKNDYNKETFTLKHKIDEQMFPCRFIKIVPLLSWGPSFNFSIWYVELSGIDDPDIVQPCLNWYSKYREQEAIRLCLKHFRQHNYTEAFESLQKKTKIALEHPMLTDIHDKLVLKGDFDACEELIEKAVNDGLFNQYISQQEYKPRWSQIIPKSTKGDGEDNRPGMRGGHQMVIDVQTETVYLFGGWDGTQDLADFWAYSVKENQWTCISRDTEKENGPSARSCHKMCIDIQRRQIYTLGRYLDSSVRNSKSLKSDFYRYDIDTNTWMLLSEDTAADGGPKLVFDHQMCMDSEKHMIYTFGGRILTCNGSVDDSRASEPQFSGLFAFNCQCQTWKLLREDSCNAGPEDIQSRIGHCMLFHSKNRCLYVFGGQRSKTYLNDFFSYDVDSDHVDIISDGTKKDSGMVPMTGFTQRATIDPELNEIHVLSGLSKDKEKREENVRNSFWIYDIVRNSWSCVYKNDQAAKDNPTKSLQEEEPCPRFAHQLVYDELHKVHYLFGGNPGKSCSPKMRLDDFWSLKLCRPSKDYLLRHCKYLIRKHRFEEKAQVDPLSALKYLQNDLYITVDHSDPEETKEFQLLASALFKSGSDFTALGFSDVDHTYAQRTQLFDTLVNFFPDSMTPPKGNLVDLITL
# UniProt P39210: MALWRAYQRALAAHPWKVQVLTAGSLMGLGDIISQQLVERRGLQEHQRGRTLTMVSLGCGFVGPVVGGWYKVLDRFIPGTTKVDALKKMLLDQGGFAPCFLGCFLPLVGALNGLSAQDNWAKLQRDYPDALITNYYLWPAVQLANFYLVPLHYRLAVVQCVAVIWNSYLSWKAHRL
# UniProt Q9NZW5: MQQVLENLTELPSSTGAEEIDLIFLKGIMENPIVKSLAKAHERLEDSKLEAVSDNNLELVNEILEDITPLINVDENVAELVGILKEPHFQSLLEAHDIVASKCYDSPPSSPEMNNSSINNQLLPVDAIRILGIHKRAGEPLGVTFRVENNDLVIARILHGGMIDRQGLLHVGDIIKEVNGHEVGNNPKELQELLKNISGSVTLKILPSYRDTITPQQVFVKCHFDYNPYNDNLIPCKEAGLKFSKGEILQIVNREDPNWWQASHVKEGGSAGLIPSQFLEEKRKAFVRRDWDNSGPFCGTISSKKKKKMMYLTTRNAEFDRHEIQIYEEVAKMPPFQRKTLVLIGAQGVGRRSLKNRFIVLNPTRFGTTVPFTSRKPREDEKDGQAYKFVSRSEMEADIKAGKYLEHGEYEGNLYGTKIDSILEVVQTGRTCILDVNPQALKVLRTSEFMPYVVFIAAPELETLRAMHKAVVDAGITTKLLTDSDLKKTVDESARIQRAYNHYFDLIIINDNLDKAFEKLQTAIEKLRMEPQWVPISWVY
# The list shows a part of the results.
# Compound: CC1Cc2ccccc2N1C(=O)C1CCCN(C1)C(=O)CCl (mixture of isomers) [TRIM25 ligand 11 (diastereomer mixture)]
# Assay: probe-labelled cysteine peptide fold change vs DMSO (competition) (log2 fold change); higher = less target engagement (more negative = stronger competition)
# Conditions: 10 µM; THP-1; incubation time: 4 h
# 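Note: competitive chemoproteomic profiling in live THP-1 cells with an iodoacetamide desthiobiotin (IA-DTB) probe, comparing probe-labelled peptide intensities in compound-treated cells against DMSO-treated controls.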
row,Target,probe-labelled cysteine peptide fold change
1,MIER1_Q8N108_263_CNFDTEEALRR (UniProt Q8N108),0.186
2,MLKL_Q8NB16_437_RQQEPLGEDCPSELR (UniProt Q8NB16),0.111
3,MIOS_Q9NXC5_854_DHAECPVSACTCK (UniProt Q9NXC5),0.203
4,MOB3A_Q96BX8_88_VNLIYGTISDGCTEQSCPVMSGGPK (UniProt Q96BX8),0.127
5,MIS18A_Q9NYP9_231_LSFATCK (UniProt Q9NYP9),0.0205
6,MROH1_Q8NDA8_1035_DGLVHPDPAILFHTCHSVGQIIAK (UniProt Q8NDA8),0.125
7,MGMT_P16455_145_GNPVPILIPCHR (UniProt P16455),-0.499
8,MKI67_P46013_1285_KADVEGELLACR (UniProt P46013),-0.0292
9,MPP1_Q00013_242_VASMAQSAPSEAPSCSPFGK (UniProt Q00013),-0.172
10,MRPL42_Q9Y6G3_45_STYSPLPDDYNCNVELALTSDGR (UniProt Q9Y6G3),-0.177
11,MINDY1_Q8N5J2_94_ACSMPQELPQSPR (UniProt Q8N5J2),-0.162
12,MGST1_P10620_50_VFANPEDCVAFGKGENAK (UniProt P10620),-0.204
13,MRPL3_P09001_127_HVVTLLQVQDCHVLK (UniProt P09001),0.0523
14,MPG_P29372_56_AGQPHSSSDAAQAPAEQPHSSSDAAQAPCPR (UniProt P29372),0.193
15,MPP1_Q00013_179_DNLIPCK (UniProt Q00013),0.035
16,MPRIP_Q6WCQ1_831_CLENAHLAQALEAER (UniProt Q6WCQ1),-0.0448
17,MITD1_Q8WV92_226_FSLGYCDFDLRPCHETTVDIFHK (UniProt Q8WV92),0.0671
18,MRI1_Q9BV20_168_VTVLTHCNTGALATAGYGTALGVIR (UniProt Q9BV20),0.171

row,Target,probe-labelled cysteine peptide fold change
1,MGST1_P10620_50_VFANPEDCVAFGK (UniProt P10620),0.0582
2,MORC3_Q14149_62_TVINDHICLTFTDNGNGMTSDK (UniProt Q14149),-0.113
3,MLH1_P40692_77_KEDLDIVCER (UniProt P40692),0.0825
4,MOCS2_O96033_5_MVPLCQVEVLYFAK (UniProt O96033),-0.0724
5,MROH1_Q8NDA8_888_ADVIHGCLHSIMALLPEPKEEDGGCQK (UniProt Q8NDA8),-0.104
6,MRPL18_Q9H0U6_125_NVVACESIGR (UniProt Q9H0U6),0.143
7,MKRN1_Q9UHC7_239_YGENCVYLHGDSCDMCGLQVLHPMDAAQR (UniProt Q9UHC7),0.113
8,MMADHC_Q9H3L0_82_FQLPGNIGFDCHLNGTASQK (UniProt Q9H3L0),0.0172
9,MKLN1_Q9UL63_82_THVCNLKK (UniProt Q9UL63),-0.192
10,MPV17_P39210_59_TLTMVSLGCGFVGPVVGGWYK (UniProt P39210),-0.119
11,MLH1_P40692_672_ECFESLSK (UniProt P40692),0.115
12,MKRN2_Q9H000_216_ICMLTFEHEMEK (UniProt Q9H000),0.0247
13,MPP6_Q9NZW5_103_CYDSPPSSPEMNNSSINNQLLPVDAIR (UniProt Q9NZW5),-0.222
14,MLKL_Q8NB16_184_CMQEIPQEQIK (UniProt Q8NB16),-0.285
15,MORC3_Q14149_671_NDAVILPSCVEAEAK (UniProt Q14149),0.0847
16,MNAT1_P51948_6_MDDQGCPR (UniProt P51948),-0.0866
17,MICAL1_Q8TDZ2_87_CLVVGAGPCGLR (UniProt Q8TDZ2),0.221
18,MRC2_Q9UBG0_187_IYGSEEDLCALPYHEVYTIQGNSHGKPCTIPFK (UniProt Q9UBG0),0.0318

# Same assay, conditions: 50 µM; THP-1; incubation time: 4 h
row,Target,probe-labelled cysteine peptide fold change
1,MIER1_Q8N108_263_CNFDTEEALRR (UniProt Q8N108),0.152
2,MLKL_Q8NB16_437_RQQEPLGEDCPSELR (UniProt Q8NB16),-0.0546
3,MIOS_Q9NXC5_854_DHAECPVSACTCK (UniProt Q9NXC5),0.0703
4,MOB3A_Q96BX8_88_VNLIYGTISDGCTEQSCPVMSGGPK (UniProt Q96BX8),-0.0146
5,MIS18A_Q9NYP9_231_LSFATCK (UniProt Q9NYP9),-0.0549
6,MROH1_Q8NDA8_1035_DGLVHPDPAILFHTCHSVGQIIAK (UniProt Q8NDA8),0.082
7,MGMT_P16455_145_GNPVPILIPCHR (UniProt P16455),-1.05
8,MKI67_P46013_1285_KADVEGELLACR (UniProt P46013),-0.27
9,MPP1_Q00013_242_VASMAQSAPSEAPSCSPFGK (UniProt Q00013),-0.3
10,MRPL42_Q9Y6G3_45_STYSPLPDDYNCNVELALTSDGR (UniProt Q9Y6G3),-0.0419
11,MINDY1_Q8N5J2_94_ACSMPQELPQSPR (UniProt Q8N5J2),-0.508
12,MGST1_P10620_50_VFANPEDCVAFGKGENAK (UniProt P10620),-0.15
13,MRPL3_P09001_127_HVVTLLQVQDCHVLK (UniProt P09001),0.123
14,MPG_P29372_56_AGQPHSSSDAAQAPAEQPHSSSDAAQAPCPR (UniProt P29372),-0.822
15,MPP1_Q00013_179_DNLIPCK (UniProt Q00013),0.0583
16,MPRIP_Q6WCQ1_831_CLENAHLAQALEAER (UniProt Q6WCQ1),-0.0915
17,MITD1_Q8WV92_226_FSLGYCDFDLRPCHETTVDIFHK (UniProt Q8WV92),0.022
18,MRI1_Q9BV20_168_VTVLTHCNTGALATAGYGTALGVIR (UniProt Q9BV20),-0.0174

row,Target,probe-labelled cysteine peptide fold change
1,MGST1_P10620_50_VFANPEDCVAFGK (UniProt P10620),0.0232
2,MORC3_Q14149_62_TVINDHICLTFTDNGNGMTSDK (UniProt Q14149),0.0366
3,MLH1_P40692_77_KEDLDIVCER (UniProt P40692),-0.147
4,MOCS2_O96033_5_MVPLCQVEVLYFAK (UniProt O96033),-0.0621
5,MROH1_Q8NDA8_888_ADVIHGCLHSIMALLPEPKEEDGGCQK (UniProt Q8NDA8),-0.0768
6,MRPL18_Q9H0U6_125_NVVACESIGR (UniProt Q9H0U6),-0.0322
7,MKRN1_Q9UHC7_239_YGENCVYLHGDSCDMCGLQVLHPMDAAQR (UniProt Q9UHC7),-0.171
8,MMADHC_Q9H3L0_82_FQLPGNIGFDCHLNGTASQK (UniProt Q9H3L0),-0.152
9,MKLN1_Q9UL63_82_THVCNLKK (UniProt Q9UL63),-0.221
10,MPV17_P39210_59_TLTMVSLGCGFVGPVVGGWYK (UniProt P39210),0.00545
11,MLH1_P40692_672_ECFESLSK (UniProt P40692),-0.00526
12,MKRN2_Q9H000_216_ICMLTFEHEMEK (UniProt Q9H000),0.0549
13,MPP6_Q9NZW5_103_CYDSPPSSPEMNNSSINNQLLPVDAIR (UniProt Q9NZW5),-0.345
14,MLKL_Q8NB16_184_CMQEIPQEQIK (UniProt Q8NB16),-0.33
15,MORC3_Q14149_671_NDAVILPSCVEAEAK (UniProt Q14149),-0.059
16,MNAT1_P51948_6_MDDQGCPR (UniProt P51948),0.476
17,MICAL1_Q8TDZ2_87_CLVVGAGPCGLR (UniProt Q8TDZ2),0.325
18,MRC2_Q9UBG0_187_IYGSEEDLCALPYHEVYTIQGNSHGKPCTIPFK (UniProt Q9UBG0),-0.065
